Test results from PMC4058522, “Structural Basis for Phosphorylation-Dependent Recruitment of Tel2 to Hsp90 by Pih1” (Structure(London, England:1993), 2014).
No constants are given. Whether binding was seen depends on the method and setting.

Amino acid sequences for entries named in this document (tags omitted). A change or cut given only in a name is not applied to a line headed by its entry. Chains listed by the source or under a name are the forms on record and can include a tag or linker.
UniProt P08238: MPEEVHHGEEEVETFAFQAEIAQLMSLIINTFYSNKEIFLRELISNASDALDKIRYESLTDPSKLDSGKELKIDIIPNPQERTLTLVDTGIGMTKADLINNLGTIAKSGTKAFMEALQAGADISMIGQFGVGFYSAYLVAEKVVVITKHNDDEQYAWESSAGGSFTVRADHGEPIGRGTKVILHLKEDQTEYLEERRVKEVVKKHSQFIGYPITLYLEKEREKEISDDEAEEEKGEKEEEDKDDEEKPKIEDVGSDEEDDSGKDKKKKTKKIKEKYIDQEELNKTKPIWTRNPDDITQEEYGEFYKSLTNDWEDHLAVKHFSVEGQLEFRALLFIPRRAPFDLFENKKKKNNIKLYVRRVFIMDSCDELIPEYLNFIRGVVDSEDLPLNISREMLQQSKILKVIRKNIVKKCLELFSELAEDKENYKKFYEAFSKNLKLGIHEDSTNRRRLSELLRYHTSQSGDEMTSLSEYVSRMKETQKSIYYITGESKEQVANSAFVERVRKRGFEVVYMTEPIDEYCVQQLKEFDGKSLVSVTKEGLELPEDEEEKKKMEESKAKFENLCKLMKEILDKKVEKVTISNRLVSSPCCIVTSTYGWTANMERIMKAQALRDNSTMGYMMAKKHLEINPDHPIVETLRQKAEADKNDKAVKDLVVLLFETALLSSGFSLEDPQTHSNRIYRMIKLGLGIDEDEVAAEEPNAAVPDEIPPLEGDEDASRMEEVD
UniProt P25638: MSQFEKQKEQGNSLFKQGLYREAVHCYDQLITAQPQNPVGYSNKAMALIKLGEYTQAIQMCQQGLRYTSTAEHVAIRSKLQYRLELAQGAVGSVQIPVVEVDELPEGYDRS
Spagh/RPAP3 120-395 N172E-N321E double mutant (Q9H6T3, form named): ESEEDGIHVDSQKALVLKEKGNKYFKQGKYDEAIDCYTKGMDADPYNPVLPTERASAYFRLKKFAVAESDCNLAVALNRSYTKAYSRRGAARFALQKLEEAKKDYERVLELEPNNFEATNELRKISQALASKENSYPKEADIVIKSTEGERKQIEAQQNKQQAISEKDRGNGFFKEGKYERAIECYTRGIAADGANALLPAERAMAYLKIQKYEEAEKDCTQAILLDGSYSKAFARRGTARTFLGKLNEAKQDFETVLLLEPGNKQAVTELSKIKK
UniProt P53691: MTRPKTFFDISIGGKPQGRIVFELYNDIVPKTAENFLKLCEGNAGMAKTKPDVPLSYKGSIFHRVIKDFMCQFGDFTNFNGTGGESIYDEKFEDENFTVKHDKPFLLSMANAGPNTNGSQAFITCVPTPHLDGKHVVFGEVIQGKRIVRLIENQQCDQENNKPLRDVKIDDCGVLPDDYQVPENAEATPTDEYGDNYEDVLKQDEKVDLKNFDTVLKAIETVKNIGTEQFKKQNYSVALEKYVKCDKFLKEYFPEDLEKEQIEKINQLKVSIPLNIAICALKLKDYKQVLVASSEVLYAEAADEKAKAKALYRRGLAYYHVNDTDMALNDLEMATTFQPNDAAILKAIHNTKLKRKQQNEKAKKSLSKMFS

Experiments:
His6-Hsp90β (human) = His6-Hsp90β (human) (UniProt P08238); test: pull-down; His6-Hsp90β as bait, Spagh/RPAP3 120-395 tandem TPR segment (wild type and mutants) as prey; both purified
FLAG-tagged Tah1 (yeast) = FLAG-tagged Tah1 (yeast) (UniProt P25638); test: co-IP; 70 μM Flag-Tah1p, Hsp90 600-709 and increasing concentrations of Cpr6 in 20 mM HEPES pH 7.5, 150 mM NaCl, 10% glycerol, 0.5% Igepal, 2 mM EDTA; Anti-Flag M2 magnetic beads; SDS-PAGE; both purified

Row | binding (His6-Hsp90β (human)) | binding (FLAG-tagged Tah1 (yeast)) | Substance
1 | no binding |  | Spagh/RPAP3 120-395 N172E-N321E double mutant (from UniProt Q9H6T3 120-395) (domain or fragment)
2 |  | no binding | Cpr6 (monomeric TPR-domain Hsp90 cochaperone) (from UniProt P53691 1-371)
